Consider 40 compounds from PubChem BioAssay AID2685 (National Center for Advancing Translational Sciences (NCATS), 2010).

The other results are listed elsewhere or left out. Further columns of the screen follow, without active or inactive calls. Compounds called inactive in the main read-out are mostly missing here. Potencies come from curve fits of mixed quality, noted in brackets.

This assay is described as follows: qHTS Assay for Lipid Storage Modulators in Drosophila S3 Cells.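 On cell number change: cells counted by Cell Tracker Red CMTPX staining in the red channel.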 As to conditions: BODIPY lipid droplet fluorescence, 18-24 h; for cell number change: measured here: cell count max response, cells fed with added oleic acid. Put shortly: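 Laser-scanning cytometry quantifies lipid droplet accumulation (500–530 nm total intensity; droplet/cell object ratio) in oleic acid-fed (400 uM added) Drosophila S3 cells treated with a concentration series. 20 uM Triacsin C defined 100% inhibition.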

Setting [1] is: measured here: lipid fluorescence (Fed channel) AC50, cells fed with added oleic acid.
The mark [2] stands for this setting: measured here: cell number channel AC50, cells fed with added oleic acid.

For `Cc1ccc(NC2CCCN(C(=O)c3cn4cccc(C)c4n3)C2)cc1C` (centres undefined), the cell number change was -4.53%. Further, the AC50 under setting [1] was 29.1 µM [rising, single point]. For `CCCc1cc(=O)n2[nH]c(C)c(-c3ccc(OC)cc3)c2n1`, under setting [1], the concentration at half-maximal activity (AC50) is 18.4 µM [falling, single point]. For `O=C(CNC(=S)NC(=O)c1ccccc1)c1ccccc1`, the cell number change is 9.18%. Consider `Cc1nc(N2CCN(S(=O)(=O)c3ccccc3C#N)CC2)c2c(-c3cccs3)csc2n1`, for which the cell number change is -15.3%. Further, the AC50 under setting [2] was 3.66 µM [rising, single point]. On to `COc1ccc(C(C(O)C(=O)c2c[nH]c3ccccc23)N2CCN(c3ccccc3)CC2)cc1` (centres undefined), for which the concentration at half-maximal activity (AC50) under setting [1] is 2.06 µM [rising, partial curve]. For the compound `S=c1[nH]nc(-c2ccccn2)n1/N=C/c1cccs1`, the AC50 was 0.00517 µM [falling, full curve, poor fit] under setting [2] and 0.058 µM [rising, full curve] under setting [1]. Regarding `O=C(CCNC(=O)C1CCN(S(=O)(=O)c2ccccc2)CC1)NCc1ccc(Cl)cc1`, the cell number change was 15.3%.

For `O=C(OCC(=O)N1CCN(S(=O)(=O)c2ccc(Cl)cc2)CC1)c1ccc([N+](=O)[O-])o1`, the cell number change is 14.1%. Besides, the concentration at half-maximal activity (AC50) under setting [1] is 1.64 µM [falling, partial curve]. Regarding `Cc1ccc(CN(CC(=O)N/N=C/c2ccco2)S(=O)(=O)c2ccc(C)cc2)cc1`, the cell number change was determined as 69.6%. For the same compound, under setting [2], the AC50 is 3.26 µM [rising, partial curve]. Under setting [1], the AC50 was 1.3 µM [rising, full curve]. As for `CCNc1nc(OC)nc(Oc2ccc(=O)n(-c3ccccc3)n2)n1`, under setting [2], the AC50 is 0.13 µM [falling, full curve, poor fit]. As for `Cc1ccc(S(=O)(=O)c2c(C)cc(C)nc2Oc2cccc(C)c2C)cc1`, the cell number change was determined as 20.1%. Besides, the concentration at half-maximal activity (AC50) under setting [1] is 29.1 µM [rising, single point]. Turning to `CCc1cccc(NC(=O)COC(=O)/C=C/c2cccs2)c1`, the cell number change is -5.5%. As for `O=C1C2CC=CCC2C(=O)N1c1ccc(NCCc2ccccc2)c([N+](=O)[O-])c1` (centres undefined), the cell number change came out at 15.7%. Also, the concentration at half-maximal activity (AC50) under setting [1] was 0.82 µM [rising, partial curve, poor fit]. `O=c1[nH]c(/C=C/c2ccc(Br)cc2)nc2c1cnn2-c1ccccc1`: the cell number change was -6.77%. The AC50 under setting [2] is 0.116 µM [falling, full curve].

As to `COc1ccc(N/C=C2\C(=O)CCc3c2oc2cc(Cl)c(O)c(Cl)c32)cc1`, the cell number change was -3.44%. Moreover, the AC50 under setting [1] was 29.1 µM [falling, single point]. Regarding `Cc1cccc(C)c1NC(=O)NCCSc1snnc1C`, the cell number change came to 39.8%. For the same compound, the AC50 under setting [2] was 7.31 µM [rising, partial curve]. Under setting [1], the AC50 is 2.06 µM [rising, full curve]. Take `CC(=O)Nc1ccc(OCCOc2ccc(/C=C3\C(=N)N4N=C(C)SC4=NC3=O)cc2)cc1`: the cell number change is -9.72%. Turning to `COc1ccc2oc3ccccc3c(=O)c2c1`, the cell number change came to 30.4%. For the same compound, under setting [2], the AC50 is 1.16 µM [rising, full curve, poor fit]. For the same compound, under setting [1], the AC50 was 6.51 µM [falling, single point].

For the compound `Cc1ccc(N2C(=O)c3ccc(C(=O)N4CCN(Cc5ccccc5)CC4)cc3C2=O)cc1`, the cell number change is -15.6%. For the same compound, the half-maximal activity concentration (AC50) under setting [1] was 2.31 µM [falling, full curve]. As for `Nc1nc(NCc2ccco2)nc(Nc2ccc(F)cc2)c1[N+](=O)[O-]`, the cell number change came to 21.6%. Moreover, the AC50 under setting [1] is 0.651 µM [falling, single point]. Take `Cc1ccc(C(=O)NNC(=O)C2CCN(c3ncccn3)CC2)cc1`: the cell number change is 28.4%. Besides, the concentration at half-maximal activity (AC50) under setting [1] was 29.1 µM [rising, single point]. Regarding `Cc1cccc(/N=C/C2=C(O)CC(C)(C)CC2=O)n1`, the cell number change is -26.8%. Moreover, the AC50 under setting [1] was 2.59 µM [falling, full curve]. Regarding `CCOc1ccc2nc(N3C(=O)C(O)=C(C(=O)c4ccco4)C3c3ccco3)sc2c1` (centres undefined), the cell number change is -11.1%. Also, under setting [2], the AC50 was 7.31 µM [falling, partial curve]. Besides, the AC50 under setting [1] was 0.58 µM [falling, full curve]. In the case of `CCCn1c(SCC(=O)Nc2ccc3c(c2)OCCO3)n[nH]c1=O`, the cell number change was -7.63%. For `CC(C)Nc1ccccc1`, the cell number change was -3.05%. Further, the AC50 under setting [1] is 0.116 µM [rising, single point].

With `CC(=O)NCCn1c(SCc2ccccc2F)nc2ccccc2c1=O`, the cell number change is -17.9%. Under setting [1], the AC50 was 7.31 µM [falling, partial curve]. Regarding `CCN(Cc1ccccc1)C(=O)CSc1nncn1C`, the cell number change is -20.8%. Turning to `Cc1csc(=O)n1CCC(=O)OC(C)C(=O)Nc1ccc(N2CCOCC2)cc1` (centres undefined), the cell number change was -11%. In addition, under setting [2], the AC50 was 5.8 µM [falling, single point]. Besides, the AC50 under setting [1] is 6.51 µM [falling, single point]. As for `COC(=O)C1CCN(C(=O)[C@H](C)NC(=O)C2CC(=O)N(c3ccc(F)cc3)C2)CC1` (some centres undefined), the cell number change was -16.3%. The AC50 under setting [1] was 2.91 µM [falling, single point].

With `COc1ccccc1COCC(O)CNCCc1ccc(C(F)(F)F)cc1` (centres undefined), under setting [2], the AC50 is 4.61 µM [rising, single point]. `O=C(O)c1sccc1S(=O)(=O)N1CCOCC1`: the cell number change was -32.4%. Further, the AC50 under setting [2] was 1.84 µM [falling, full curve]. The AC50 under setting [1] was 0.517 µM [falling, full curve]. With `O=C(Nc1cccnc1)OCc1ccccc1`, the cell number change is 3.15%. The AC50 under setting [1] was 29.1 µM [rising, single point]. In the case of `O=C(N/C(=C/c1ccco1)C(=O)N1CCCCCC1)c1cccs1`, the cell number change was determined as 21.8%. Moreover, the AC50 under setting [1] was 0.259 µM [rising, full curve, poor fit]. For `CC(C)(C)n1ncc2c(=O)n(CC(=O)Nc3ccc(Cl)cc3)cnc21`, the cell number change was 12.2%. For the compound `COc1ccc(C(=O)N2CCC(C(=O)NCc3ccccn3)CC2)cc1`, the cell number change was -36.3%. Under setting [2], the concentration at half-maximal activity (AC50) was 14.6 µM [falling, single point]. Regarding `COc1cc(O)c2c(c1)COC2=O`, the cell number change was found to be 0.37%. Besides, under setting [1], the AC50 was 0.13 µM [falling, full curve, poor fit].

On to `O=C(O)c1cccc(NC(=O)c2cccc(S(=O)(=O)Nc3cccc([N+](=O)[O-])c3)c2)c1`, for which the cell number change was found to be 11.7%. Also, the concentration at half-maximal activity (AC50) under setting [1] was 6.51 µM [falling, single point].

On to `CC1CN(C(=O)c2cccc(COc3ccc(Br)cc3)c2)CC(C)O1` (centres undefined), for which the cell number change came to 55.7%. Under setting [2], the AC50 was 29.1 µM [rising, single point].

For `Cc1ccc(C(=O)CC2(O)C(=O)N(Cc3ccccc3)c3ccccc32)o1` (centres undefined), the cell number change came out at 11.9%. Turning to `COc1cccc(CN(CC2CCCO2)S(=O)(=O)c2ccc(S(=O)(=O)N(C)C)cc2)c1` (centres undefined), the cell number change came to 21.9%. For the same compound, the AC50 under setting [1] is 6.51 µM [rising, single point].
